# Results taken from US12269827B1, “Substituted pyrazino[1′,2′:1,5]pyrazolo[4,3-c][1,6]naphthyridines as CK2 inhibitors” (KING FAISAL UNIVERSITY, priority 2023, dated 2025).
# What was measured:
# Assay type in all cases: cell-based
# PC3 (prostate) = test: In vitro cytotoxic activity MTT assay, PC3; settings: Homo sapiens, Prostate cell; PC3 (prostate) cells, exposed for 96 hours; read-out: Cytotoxicity activity IC50 (50% inhibition of cell proliferation)
# Description: (§1) Compounds 1-16 were screened for their in vitro cytotoxic activity utilizing a 3-(4,5-dimethyl-thiazol-2-yl)-2,5-diphenyltetrazolium bromide (MTT) assay against selected cancer human cell lines consisting of PC3 (prostate), HCT116 (colon), A375 (melanoma), H1299 (lung), MIAPaCa-2 (pancreas), HL60 (leukemia), MCF7 (breast), MDA-MB-231 (breast) (T. Mosmann, J. Immunol. Meth., 1983, 65, 55-63). The cells were cultured at 37° C. in RMPI1640 medium supplemented with 10% fetal bovine serum, 50 IU/mL penicillin, and 50 µg/mL streptomycin in a 5% CO2 incubator. All cells were sub-cultured 3 times/week by trypsinisation. Viable cells were seeded and allowed to adhere for 12 hours before a test drug was added in 96-well plates at an initial density of 1.0×10^5 cells/mL. Tumor cell lines were separately exposed to various concentrations of the tested compounds followed by incubation at a temperature of 37° C. during 96 hours inside a medium of fresh RMPI 1640. Cells were subsequently incubated at 37° C. using MTT at 0.5 mg/mL during 4 hours. After removal of supernatant, formazan crystals were dissolved in isopropanol and the optical density was measured at 570 nm. CX-4945 was used as a positive control.
# HCT116 (colon) = test: In vitro cytotoxic activity MTT assay, HCT116; settings: Homo sapiens, HCT-116; HCT116 (colon) cells, exposed for 96 hours; read-out: Cytotoxicity activity IC50 (50% inhibition of cell proliferation)
# Description: as §1
# A375 (melanoma) = test: In vitro cytotoxic activity MTT assay, A375; settings: Homo sapiens, A-375; A375 (melanoma) cells, exposed for 96 hours; read-out: Cytotoxicity activity IC50 (50% inhibition of cell proliferation)
# Description: as §1
# H1299 (lung) = test: In vitro cytotoxic activity MTT assay, H1299; settings: Homo sapiens, NCI-H1299; H1299 (lung) cells, exposed for 96 hours; read-out: Cytotoxicity activity IC50 (50% inhibition of cell proliferation)
# Description: as §1
# MIAPaCa-2 (pancreas) = test: In vitro cytotoxic activity MTT assay, MIAPaCa-2; settings: Homo sapiens, MIA PaCa-2; MIAPaCa-2 (pancreas) cells, exposed for 96 hours; read-out: Cytotoxicity activity IC50 (50% inhibition of cell proliferation)
# Description: as §1
# HL60 (leukemia) = test: In vitro cytotoxic activity MTT assay, HL60; settings: Homo sapiens, HL-60; HL60 (leukemia) cells, exposed for 96 hours; read-out: Cytotoxicity activity IC50 (50% inhibition of cell proliferation)
# Description: as §1
# MCF7 (breast) = test: In vitro cytotoxic activity MTT assay, MCF7; settings: Homo sapiens; MCF7 (breast) cells, exposed for 96 hours; read-out: Cytotoxicity activity IC50 (50% inhibition of cell proliferation)
# Description: as §1
# MDA-MB-231 (breast) = test: In vitro cytotoxic activity MTT assay, MDA-MB-231; settings: Homo sapiens; MDA-MB-231 (breast) cells, exposed for 96 hours; read-out: Cytotoxicity activity IC50 (50% inhibition of cell proliferation)
# Description: as §1
structure (smiles),measurement,setting,value
"O=C(O)c1ccc2c(c1)nc(Nc1cccc(Cl)c1)c1ccncc12 [CX-4945, reference compound]",IC50,PC3 (prostate),2000 nM
same,IC50,HCT116 (colon),2300 nM
same,IC50,A375 (melanoma),4100 nM
same,IC50,H1299 (lung),2300 nM
same,IC50,MIAPaCa-2 (pancreas),1000 nM
same,IC50,HL60 (leukemia),3700 nM
same,IC50,MCF7 (breast),9100 nM
same,IC50,MDA-MB-231 (breast),6200 nM
